# According to PubChem BioAssay AID1347076 (National Center for Advancing Translational Sciences (NCATS), 2019):
# Screen size: about 400,000 compounds; about 13,000 (3.2%) were called active. The inconclusive results got no clear call from the source; some entries with a clear call stand among them for comparison. Calls follow the shape of the dose curve; as a rule, active = well fitted cell-killing curve with a large enough effect; inconclusive = small, poorly fitted or top-dose-only effect, or effect the other way; inactive = flat fitted curve, though single readings scatter. Where the call is inconclusive, the potency comes from a doubtful curve fit.
# Test: qHTS assay for MDR1-selective chemotherapeutics: Primary screen using the drug-selected MDR subline cells KB-V1; also: nearly all actives have a fitted effect of over 60% in size
# Details: KB-V1 MDR cells viability, CellTiter-Glo, 72 h; activity change, negative = cytotoxicity: at 46.1 µM (top of the series)
# Outline: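 Compound-treated KB-V1 multidrug-resistant cells, 72 h, 37 degrees C; viability by CellTiter-Glo. Fitted qHTS curves give the values.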
# % is scaled to controls: 0 for no effect and ±100 for the full control effect; potency is read from the fitted curve at half-maximal effect.
SMILES,Potency,"activity change, negative = cytotoxicity"
CCOCCOCN(C#N)c1nc(OC)nc(N(C)C)n1,"inconclusive: 8.2 µM [cytotoxic, partial curve, poor fit]",
Cc1nc(C(=O)NNC(=O)c2c(-c3c(Cl)cccc3Cl)noc2C)cs1,,inactive: 0%
Nc1cc(=O)[nH]c(SCCSc2ccc(F)cc2)n1,,inconclusive: -72.1%
CCc1ccc2nc(Nc3nc(COC)cc(=O)[nH]3)nc(C)c2c1,active: 20.6 µM,
CCCCNC(=O)c1ccc(SCC(=O)N(CC)CC)c([N+](=O)[O-])c1,"inconclusive: 11.6 µM [cytotoxic, partial curve]",
CCN(Cc1ccccc1)C(=O)CN1C(=O)NC2(CC(C)CC(C)(C)C2)C1=O (stereo not given),"inconclusive: 23.1 µM [cytotoxic, single point]",
COc1ccc(NS(=O)(=O)c2ccc(Oc3c(C#N)cccc3C#N)cc2)cc1,"inconclusive: 29.1 µM [cytotoxic, partial curve, poor fit]",
CCC(NC(=O)Nc1nccs1)(C(F)(F)F)C(F)(F)F,,inactive: 25%
COC(=O)c1c(C)[nH]c(C)c1C(=O)c1ccccc1Cc1ccccc1,"inconclusive: 8.2 µM [cytotoxic, partial curve]",
CC1(C)CC(N2CCCCC2)=CC(=[N+]2CCCCC2)C1,,inactive: 5.72%
Cc1nn(C)c(C)c1S(=O)(=O)N(CC(=O)N1CCc2ccccc2C1)c1ccc(C(C)C)cc1,"inconclusive: 16.4 µM [cytotoxic, single point]",
COc1ccc(-c2cc3nc(NCc4ccc(N(C)C)cc4)n(C)c(=O)c3s2)cc1OC,"inconclusive: 1.64 µM [cytotoxic, partial curve, poor fit]",
O=C(CNCc1cccs1)Nc1cc(S(=O)(=O)N2CCCC2)ccc1Cl,,inactive: -9.92%
Cc1ccccc1NC(=O)c1ccc(Nc2c([N+](=O)[O-])cc([N+](=O)[O-])c3ccccc23)cc1,active: 16.4 µM,
O=C(N/N=C/c1cccs1)c1ccc2ccccc2c1,"inconclusive: 23.1 µM [cytotoxic, single point]",
CCn1c2ccccc2c2cc(CN3CCN(S(C)(=O)=O)CC3)ccc21,active: 3.26 µM,
S=C(NCCc1ccccc1)NCCN1CCOCC1,"inconclusive: 11.6 µM [rising, partial curve]",
Cc1c(Cl)cccc1NC(=O)C(C)n1c(=O)cc(C)c2c(C)nn(-c3ccccc3)c21 (stereo not given),"inconclusive: 20.6 µM [rising, single point]",
COc1ccc2nc(SCC(=O)Nc3ccc4sc(C)nc4c3)c(C#N)cc2c1,"inconclusive: 1.64 µM [cytotoxic, full curve, poor fit]",
COc1ccc(OCC(=O)Nc2sc3c(c2C(=O)NCC2CCCO2)CCC3)cc1 (stereo not given),,inactive: -4.52%
Cc1ccc(S(=O)(=O)N(C)c2ccc(OC(=O)c3ccc(N4CCCC4=O)cc3)cc2)cc1,,inactive: 3.34%
CC/C(=N/Nc1cccc(C)c1)c1cnnc(SC)n1,"inconclusive: 29.1 µM [cytotoxic, single point]",
CC(C(=O)N1CCOCC1)N1C(=O)C2C3C=CC(C4CC34)C2C1=O (stereo not given),,inactive: 5.48%
COc1ccc(Cl)cc1NC(=O)CN(C)C(=O)c1ccc(-n2nc(C)cc2C)cc1,,inactive: -1.32%

# In another format: entries from further up
SMILES	Potency	activity change, negative = cytotoxicity
CCN(Cc1ccccc1)C(=O)CN1C(=O)NC2(CC(C)CC(C)(C)C2)C1=O (stereo not given)	inconclusive: 23.1 µM [cytotoxic, single point]	
COc1ccc(NS(=O)(=O)c2ccc(Oc3c(C#N)cccc3C#N)cc2)cc1	inconclusive: 29.1 µM [cytotoxic, partial curve, poor fit]	
CCC(NC(=O)Nc1nccs1)(C(F)(F)F)C(F)(F)F		inactive: 25%
COC(=O)c1c(C)[nH]c(C)c1C(=O)c1ccccc1Cc1ccccc1	inconclusive: 8.2 µM [cytotoxic, partial curve]	

# The results go on:

SMILES,Potency,"activity change, negative = cytotoxicity"
CCN(CC)C(=O)c1sc(NC(=O)c2cccc([N+](=O)[O-])c2)c(C#N)c1C,"inconclusive: 25.9 µM [cytotoxic, single point]",
CCOC(=O)C(=O)/C(C#N)=C/Nc1ccccc1,"inconclusive: 23.1 µM [rising, partial curve, poor fit]",
Cc1ccc(F)cc1C(=O)N1CCCCC1c1cc(C(=O)NC(C)C)no1 (stereo not given),,inactive: -1.75%
CC1=C(C(=O)N(C(C)C)C(C)C)CC(CC(=O)NCCCN(C)C)C(=O)N1Cc1ccc(C(C)(C)C)cc1 (stereo not given),,inactive: 1.44%
Cc1ccc(Cn2c(C)c(C(=O)NCc3ccc(Cl)c(Cl)c3)sc2=O)cc1,"inconclusive: 20.6 µM [cytotoxic, partial curve, poor fit]",
CC(C)C[C@H]1CN([C@@H](Cc2ccccc2)CN2CCC[C@H]2CN2C(=O)C(=O)NC[C@@H]2Cc2ccc(O)cc2)C(=O)C(=O)N1CC1CCCCCC1,"inconclusive: 13 µM [rising, partial curve, poor fit]",
O=C(NCC(c1ccco1)N1CCc2ccccc21)C(=O)Nc1ccccc1 (stereo not given),,inactive: -4.14%
COc1ccc(Cc2c3cc(OC)c(OC)cc3cc[n+]2C)cc1OC,,inactive: 6.48%
CCOc1ccc(-n2c(=O)c3c(C)c(C)sc3n(Cc3ccccc3C)c2=O)cc1,,inactive: 13.5%
CC(OC(=O)c1cccc(N(C)C)c1)C(=O)N1CCc2ccccc2C1 (stereo not given),active: 8.2 µM,
COc1ccc(CN(C)C(=O)C(Cc2ccccc2)NC(=O)c2ccccc2)cc1F (stereo not given),"inconclusive: 23.1 µM [cytotoxic, single point]",
CC(=O)c1ccccc1C(=O)N1CCC(n2nccc2NC(=O)C2CC2)CC1,"inconclusive: 20.6 µM [rising, single point]",
CC12CCC(=O)C=C1CCC1C2C(O)CC2(C)C1CCC21OCC1=O (stereo not given),,inactive: -0.477%
CN(C)c1cccc(/C=C(\C#N)c2ccccc2)c1,"inconclusive: 1.84 µM [cytotoxic, partial curve, poor fit]",
C=C1C(=O)OC2C1CCC(C)=C1C(=O)C3OC3(C)C12 (stereo not given),"inconclusive: 23.1 µM [cytotoxic, single point]",
CCc1cc(C(=O)Cc2ccccn2)c(O)cc1O,,inactive: 0.726%
Clc1ccc(Cc2noc(CN3CCN(c4ccccc4)CC3)n2)c(Cl)c1,"inconclusive: 20.6 µM [cytotoxic, single point]",
O=c1ccnc(Nc2ccc3c(c2)OCCO3)[nH]1,,inactive: 4.47%
C=CCn1c(SCC(=O)c2ccc(NS(=O)(=O)c3ccccc3)cc2)nnc1-c1cccs1,"inconclusive: 20.6 µM [cytotoxic, single point]",
Cc1cc(C)cc(C(=O)N2CC(=O)Nc3ccc(Br)cc3C2c2ccccc2)c1 (stereo not given),active: 14.6 µM,
CCn1nc(CCC(=O)O)c2ccccc2c1=O,"inconclusive: 23.1 µM [rising, single point]",
CCC(C)NS(=O)(=O)c1ccc(NC(=O)Cc2ccc(OC)cc2)cc1 (stereo not given),"inconclusive: 23.1 µM [cytotoxic, single point]",
COc1cc(NS(=O)(=O)c2ccc(C)cc2C)cc(OC)c1OC,"inconclusive: 16.4 µM [cytotoxic, partial curve, poor fit]",
COc1ccc(C2NC(=O)c3ccccc3N2)c(OC)c1OC (stereo not given),"inconclusive: 29.1 µM [cytotoxic, single point]",

SMILES,Potency,"activity change, negative = cytotoxicity"
CSc1cccc(NC(=O)C2CCCN(S(=O)(=O)c3cnc[nH]3)C2)c1 (stereo not given),"inconclusive: 32.6 µM [cytotoxic, single point]",
C[C@@H]1CN([C@H](C)CO)C(=O)CCCn2nncc2CO[C@H]1CN(C)C(=O)C1CC1,"inconclusive: 5.8 µM [cytotoxic, partial curve, poor fit]",
CC(=O)N(C)c1ccc(NS(=O)(=O)Cc2ccccc2)cc1,"inconclusive: 20.6 µM [cytotoxic, partial curve, poor fit]",
CCCCc1ccc(NC(=O)CSC2=C(C#N)C(c3ccco3)C3=C(CCCC3=O)N2)cc1 (stereo not given),,inactive: -11.6%
O=S(=O)(Nc1ncccn1)c1ccc(-n2cnnn2)cc1,"inconclusive: 0.0517 µM [rising, full curve]",
COc1cccc(-c2cc3nc(NCCOc4ccccc4Cl)n(C)c(=O)c3s2)c1,,inactive: 0.524%
O=C(CSc1cccc[n+]1[O-])Nc1ccc2c(c1)OCO2,"inconclusive: 16.4 µM [rising, single point]",
Cc1ccc(Nc2nc(N)nc(CSC(=S)N3CCOCC3)n2)c(C)c1,active: 8.2 µM,
c1ccc(CC(Nc2ccccn2)c2ccccc2)cc1 (stereo not given),"inconclusive: 18.4 µM [cytotoxic, single point]",
CCOC(=O)c1noc2ncn(CC(=O)Nc3ccccc3OC)c(=O)c12,,inactive: -15.9%
COCCNc1nc(NCC2CCCCC2)c2sc(-c3ccccc3)cc2n1,"inconclusive: 20.6 µM [cytotoxic, single point]",
Cc1ccc(OCCOCCn2c(-c3ccc(Cl)cc3)nc3ccccc3c2=O)cc1,,inactive: 0%
O=C(O)c1nn2cc(CCO)cnc2c1Cl,"inconclusive: 2.91 µM [rising, partial curve, poor fit]",
CCOc1ccc(Oc2nc(Nc3ccc(C)cc3)nc(N(C)C)n2)nn1,"inconclusive: 25.9 µM [cytotoxic, partial curve]",
O=C(Nc1ccc(F)cc1)N1CCN2C(=O)c3ccccc3C12c1ccccc1 (stereo not given),"inconclusive: 25.9 µM [cytotoxic, single point]",
O=C(c1nn2c(C(F)(F)F)cc(-c3ccccc3)nc2c1Cl)N1CCOCC1,"inconclusive: 18.4 µM [cytotoxic, partial curve, poor fit]",
CCOC(=O)c1ccc(N2CCN(c3cc(C)ccc3C)CC2)c(N)c1,,inactive: 8.59%
COCCC(C(=O)Oc1c(C(C)(C)C)cc(C)cc1C(C)(C)C)c1ccccc1 (stereo not given),,inactive: 11.5%
CCCCOc1ccc(-c2nnn(CC(=O)Nc3ncc(CC(=O)OCC)s3)n2)cc1,"inconclusive: 23.1 µM [cytotoxic, partial curve]",
O=C(Cc1ccccc1F)c1ccc(O)cc1O,"inconclusive: 29.1 µM [rising, single point]",
CCOc1cc(/C=C2\CN(CC)C/C(=C\c3ccc(O)c(OCC)c3)C2=O)ccc1O,"inconclusive: 2.91 µM [cytotoxic, full curve, poor fit]",
CCCCNc1c(-c2ccc(-c3ccc(C(C)=O)cc3)c(OC)c2)nc2cc(C)ccn12,"inconclusive: 23.1 µM [cytotoxic, single point]",
